Experimental findings from publication PMC11187910 are described below.

The target of assay [1] is T1, OCT6 (human (endogenous in Ishikawa)) (UniProt Q03052).
T1 sequence: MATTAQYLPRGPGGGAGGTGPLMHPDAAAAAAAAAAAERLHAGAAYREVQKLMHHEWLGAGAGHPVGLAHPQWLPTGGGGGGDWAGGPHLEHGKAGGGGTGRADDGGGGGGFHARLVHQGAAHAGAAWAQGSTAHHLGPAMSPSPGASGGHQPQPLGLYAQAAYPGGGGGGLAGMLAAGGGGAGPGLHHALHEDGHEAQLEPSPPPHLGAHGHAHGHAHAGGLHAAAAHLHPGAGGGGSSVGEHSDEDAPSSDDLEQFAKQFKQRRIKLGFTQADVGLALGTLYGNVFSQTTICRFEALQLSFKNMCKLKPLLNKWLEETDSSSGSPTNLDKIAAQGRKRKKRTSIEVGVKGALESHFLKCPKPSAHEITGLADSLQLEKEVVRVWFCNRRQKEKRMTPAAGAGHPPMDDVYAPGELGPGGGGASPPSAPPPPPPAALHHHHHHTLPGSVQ
Put plainly: co-IP; chromatin fraction of Ishikawa cells with or without MPA (pellet solubilised in RIPA buffer with 500 mM NaCl); immunoprecipitation and immunoblot.

Assay [2] deals with T1, OCT6 (human (endogenous in Ishikawa)). Put plainly: co-IP; endogenous proteins; Ishikawa and HEC1-A cells with or without 40 µM MPA for 24 h; NP40 lysis buffer; indicated antibodies overnight, then protein A/G agarose beads 4 h at 4 °C; immunoblot. In general terms: A western blot detects proteins with antibodies after separation by electrophoresis.
The target in assay [3] is Flag-tagged IDH1 wild type (isocitrate dehydrogenase 1) (human) (UniProt O75874). Put plainly: co-IP; Flag-tagged proteins; cells with or without MPA; NP40 lysis buffer; Flag-conjugated M2 beads overnight at 4 °C; immunoblot.

These are yes or no findings as the source states them, for the method shown. Binding seen in cells or lysates may run through a third protein. Some binding calls cover weakened binding; strength is not graded here.

For “IDH1, endogenous (from UniProt O75874 1-414) (enzyme)”, the binding result in assay [1] and in assay [2] was “binds” each time.

B1: OCT6 (protein, UniProt Q03052 1-451)
chain: MATTAQYLPRGPGGGAGGTGPLMHPDAAAAAAAAAAAERLHAGAAYREVQKLMHHEWLGAGAGHPVGLAHPQWLPTGGGGGGDWAGGPHLEHGKAGGGGTGRADDGGGGGGFHARLVHQGAAHAGAAWAQGSTAHHLGPAMSPSPGASGGHQPQPLGLYAQAAYPGGGGGGLAGMLAAGGGGAGPGLHHALHEDGHEAQLEPSPPPHLGAHGHAHGHAHAGGLHAAAAHLHPGAGGGGSSVGEHSDEDAPSSDDLEQFAKQFKQRRIKLGFTQADVGLALGTLYGNVFSQTTICRFEALQLSFKNMCKLKPLLNKWLEETDSSSGSPTNLDKIAAQGRKRKKRTSIEVGVKGALESHFLKCPKPSAHEITGLADSLQLEKEVVRVWFCNRRQKEKRMTPAAGAGHPPMDDVYAPGELGPGGGGASPPSAPPPPPPAALHHHHHHTLPGSVQ
Turning to B1, the binding entry in assay [3] is “binds”.
